# Results reported in the supplement of paper PMC12819154, “High-throughput peptide-centric local stability assay extends protein–ligand identification to membrane proteins, tissues and bacteria” (Nature Structural & Molecular Biology, 2025).
# Sequences of proteins named here, by UniProt entry; tags and fusion partners are left off. A change or cut given only in a name is not applied to a line headed by its entry.
# UniProt P35221: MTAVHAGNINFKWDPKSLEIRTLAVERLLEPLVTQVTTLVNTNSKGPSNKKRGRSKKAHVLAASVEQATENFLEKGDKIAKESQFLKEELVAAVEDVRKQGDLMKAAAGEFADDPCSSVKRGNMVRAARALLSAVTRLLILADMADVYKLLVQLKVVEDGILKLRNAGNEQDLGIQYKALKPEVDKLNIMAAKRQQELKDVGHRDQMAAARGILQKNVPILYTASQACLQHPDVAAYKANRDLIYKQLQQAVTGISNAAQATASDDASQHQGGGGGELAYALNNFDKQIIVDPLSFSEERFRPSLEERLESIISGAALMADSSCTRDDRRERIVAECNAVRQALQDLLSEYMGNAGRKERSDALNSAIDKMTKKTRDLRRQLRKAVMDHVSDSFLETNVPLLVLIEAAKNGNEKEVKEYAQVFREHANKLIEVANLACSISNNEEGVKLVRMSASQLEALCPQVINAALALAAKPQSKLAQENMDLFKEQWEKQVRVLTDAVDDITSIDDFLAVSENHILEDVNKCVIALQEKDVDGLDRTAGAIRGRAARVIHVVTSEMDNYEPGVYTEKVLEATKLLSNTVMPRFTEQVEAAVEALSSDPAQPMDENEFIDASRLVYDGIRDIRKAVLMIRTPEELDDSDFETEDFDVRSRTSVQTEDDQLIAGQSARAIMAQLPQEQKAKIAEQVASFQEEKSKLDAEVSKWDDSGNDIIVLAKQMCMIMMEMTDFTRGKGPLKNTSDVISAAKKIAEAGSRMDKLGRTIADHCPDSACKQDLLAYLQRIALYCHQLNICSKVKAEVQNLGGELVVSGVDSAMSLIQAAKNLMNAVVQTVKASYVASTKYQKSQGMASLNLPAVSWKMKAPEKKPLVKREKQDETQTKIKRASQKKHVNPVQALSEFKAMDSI
# UniProt P29474: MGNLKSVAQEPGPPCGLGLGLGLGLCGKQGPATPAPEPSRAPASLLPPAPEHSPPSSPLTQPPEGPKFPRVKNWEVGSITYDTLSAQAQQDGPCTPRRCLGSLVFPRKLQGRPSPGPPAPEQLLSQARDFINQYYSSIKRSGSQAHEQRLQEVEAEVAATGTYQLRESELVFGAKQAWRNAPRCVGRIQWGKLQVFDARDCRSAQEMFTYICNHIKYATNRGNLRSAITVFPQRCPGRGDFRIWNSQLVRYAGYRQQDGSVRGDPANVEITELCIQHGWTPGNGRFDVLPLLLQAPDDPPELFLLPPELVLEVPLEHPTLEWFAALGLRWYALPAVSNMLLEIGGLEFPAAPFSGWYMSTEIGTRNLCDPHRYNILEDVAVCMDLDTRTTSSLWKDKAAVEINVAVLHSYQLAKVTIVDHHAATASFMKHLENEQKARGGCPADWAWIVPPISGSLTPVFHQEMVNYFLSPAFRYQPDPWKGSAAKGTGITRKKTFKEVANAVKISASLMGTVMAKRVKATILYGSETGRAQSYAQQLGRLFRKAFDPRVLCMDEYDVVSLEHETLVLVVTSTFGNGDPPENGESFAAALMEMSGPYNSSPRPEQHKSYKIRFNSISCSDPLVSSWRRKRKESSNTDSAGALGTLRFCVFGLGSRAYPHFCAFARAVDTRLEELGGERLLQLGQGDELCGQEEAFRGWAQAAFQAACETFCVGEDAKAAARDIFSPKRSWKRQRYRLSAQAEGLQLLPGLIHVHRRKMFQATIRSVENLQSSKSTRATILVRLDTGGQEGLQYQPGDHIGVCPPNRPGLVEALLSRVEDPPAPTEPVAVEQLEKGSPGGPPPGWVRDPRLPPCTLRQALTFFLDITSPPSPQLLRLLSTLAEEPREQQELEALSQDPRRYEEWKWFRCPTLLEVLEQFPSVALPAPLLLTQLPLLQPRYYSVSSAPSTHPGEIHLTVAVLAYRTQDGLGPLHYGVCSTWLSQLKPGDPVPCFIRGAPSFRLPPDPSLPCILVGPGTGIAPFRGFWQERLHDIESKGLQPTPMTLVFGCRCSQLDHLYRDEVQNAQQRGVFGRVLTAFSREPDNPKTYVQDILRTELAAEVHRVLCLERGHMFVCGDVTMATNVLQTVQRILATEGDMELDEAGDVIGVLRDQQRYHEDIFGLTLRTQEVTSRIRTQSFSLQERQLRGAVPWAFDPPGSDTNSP
# UniProt P41252: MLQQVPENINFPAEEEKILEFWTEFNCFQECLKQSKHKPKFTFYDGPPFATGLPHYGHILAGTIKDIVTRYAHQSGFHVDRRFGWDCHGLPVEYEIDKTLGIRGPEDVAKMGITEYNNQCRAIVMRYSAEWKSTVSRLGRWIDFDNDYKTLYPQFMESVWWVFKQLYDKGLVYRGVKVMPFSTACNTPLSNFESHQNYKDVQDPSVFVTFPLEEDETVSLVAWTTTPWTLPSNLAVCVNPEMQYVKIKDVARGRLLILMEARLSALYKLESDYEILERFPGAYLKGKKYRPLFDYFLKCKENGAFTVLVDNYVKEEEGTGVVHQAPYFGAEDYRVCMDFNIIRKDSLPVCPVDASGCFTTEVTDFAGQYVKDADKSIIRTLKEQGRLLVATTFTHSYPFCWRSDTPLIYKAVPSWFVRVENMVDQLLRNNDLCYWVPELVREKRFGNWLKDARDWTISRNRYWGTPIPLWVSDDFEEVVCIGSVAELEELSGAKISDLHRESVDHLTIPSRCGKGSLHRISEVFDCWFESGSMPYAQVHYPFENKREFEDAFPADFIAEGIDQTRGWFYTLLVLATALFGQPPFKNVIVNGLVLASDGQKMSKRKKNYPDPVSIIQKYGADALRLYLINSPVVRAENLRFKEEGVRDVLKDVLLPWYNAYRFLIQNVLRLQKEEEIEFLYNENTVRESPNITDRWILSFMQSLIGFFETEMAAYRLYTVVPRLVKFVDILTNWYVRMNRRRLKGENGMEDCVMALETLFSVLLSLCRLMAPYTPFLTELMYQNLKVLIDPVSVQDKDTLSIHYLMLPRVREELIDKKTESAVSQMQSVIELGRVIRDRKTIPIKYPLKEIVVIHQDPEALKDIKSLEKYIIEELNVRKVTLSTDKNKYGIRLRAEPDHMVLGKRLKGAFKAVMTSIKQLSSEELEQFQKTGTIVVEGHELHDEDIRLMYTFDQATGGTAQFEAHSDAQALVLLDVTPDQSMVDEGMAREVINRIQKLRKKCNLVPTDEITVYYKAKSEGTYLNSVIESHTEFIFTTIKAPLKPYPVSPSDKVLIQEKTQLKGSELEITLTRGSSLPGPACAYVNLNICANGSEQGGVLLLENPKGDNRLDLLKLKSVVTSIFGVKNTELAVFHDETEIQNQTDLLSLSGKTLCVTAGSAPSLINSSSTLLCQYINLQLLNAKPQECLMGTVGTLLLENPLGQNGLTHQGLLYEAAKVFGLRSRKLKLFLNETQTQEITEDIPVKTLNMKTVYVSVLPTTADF
# UniProt P31939: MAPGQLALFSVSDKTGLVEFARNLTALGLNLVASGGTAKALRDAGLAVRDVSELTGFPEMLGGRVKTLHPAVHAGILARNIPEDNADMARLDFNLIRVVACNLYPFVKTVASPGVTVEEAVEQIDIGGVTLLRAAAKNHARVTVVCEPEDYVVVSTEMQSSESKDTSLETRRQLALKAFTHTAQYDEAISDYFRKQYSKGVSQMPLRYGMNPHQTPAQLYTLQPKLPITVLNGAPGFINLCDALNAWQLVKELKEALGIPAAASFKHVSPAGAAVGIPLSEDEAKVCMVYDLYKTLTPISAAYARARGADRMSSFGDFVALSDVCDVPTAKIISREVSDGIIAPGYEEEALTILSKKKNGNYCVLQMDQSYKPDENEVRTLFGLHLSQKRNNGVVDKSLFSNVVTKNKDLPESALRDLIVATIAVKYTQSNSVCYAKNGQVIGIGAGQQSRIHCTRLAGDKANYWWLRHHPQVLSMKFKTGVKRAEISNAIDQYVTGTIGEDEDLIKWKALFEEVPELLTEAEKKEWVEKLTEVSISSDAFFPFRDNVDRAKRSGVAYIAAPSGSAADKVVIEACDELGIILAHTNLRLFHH
# UniProt P40261: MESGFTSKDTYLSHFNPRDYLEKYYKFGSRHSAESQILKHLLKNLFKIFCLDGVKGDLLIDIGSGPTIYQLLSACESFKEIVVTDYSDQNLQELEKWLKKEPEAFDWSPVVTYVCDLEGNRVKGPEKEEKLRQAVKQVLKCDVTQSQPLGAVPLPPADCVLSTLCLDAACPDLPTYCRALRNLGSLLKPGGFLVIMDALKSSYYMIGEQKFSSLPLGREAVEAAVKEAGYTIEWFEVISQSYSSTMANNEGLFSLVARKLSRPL
# UniProt P40925: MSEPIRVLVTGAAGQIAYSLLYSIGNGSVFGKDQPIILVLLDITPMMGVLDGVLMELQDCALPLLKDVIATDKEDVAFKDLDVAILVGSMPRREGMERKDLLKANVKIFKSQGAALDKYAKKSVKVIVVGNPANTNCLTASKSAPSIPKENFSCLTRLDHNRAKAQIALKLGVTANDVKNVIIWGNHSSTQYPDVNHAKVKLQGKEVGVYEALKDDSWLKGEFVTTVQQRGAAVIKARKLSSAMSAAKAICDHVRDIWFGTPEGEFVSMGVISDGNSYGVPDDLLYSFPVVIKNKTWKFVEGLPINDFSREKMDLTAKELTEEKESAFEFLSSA
# UniProt P42695: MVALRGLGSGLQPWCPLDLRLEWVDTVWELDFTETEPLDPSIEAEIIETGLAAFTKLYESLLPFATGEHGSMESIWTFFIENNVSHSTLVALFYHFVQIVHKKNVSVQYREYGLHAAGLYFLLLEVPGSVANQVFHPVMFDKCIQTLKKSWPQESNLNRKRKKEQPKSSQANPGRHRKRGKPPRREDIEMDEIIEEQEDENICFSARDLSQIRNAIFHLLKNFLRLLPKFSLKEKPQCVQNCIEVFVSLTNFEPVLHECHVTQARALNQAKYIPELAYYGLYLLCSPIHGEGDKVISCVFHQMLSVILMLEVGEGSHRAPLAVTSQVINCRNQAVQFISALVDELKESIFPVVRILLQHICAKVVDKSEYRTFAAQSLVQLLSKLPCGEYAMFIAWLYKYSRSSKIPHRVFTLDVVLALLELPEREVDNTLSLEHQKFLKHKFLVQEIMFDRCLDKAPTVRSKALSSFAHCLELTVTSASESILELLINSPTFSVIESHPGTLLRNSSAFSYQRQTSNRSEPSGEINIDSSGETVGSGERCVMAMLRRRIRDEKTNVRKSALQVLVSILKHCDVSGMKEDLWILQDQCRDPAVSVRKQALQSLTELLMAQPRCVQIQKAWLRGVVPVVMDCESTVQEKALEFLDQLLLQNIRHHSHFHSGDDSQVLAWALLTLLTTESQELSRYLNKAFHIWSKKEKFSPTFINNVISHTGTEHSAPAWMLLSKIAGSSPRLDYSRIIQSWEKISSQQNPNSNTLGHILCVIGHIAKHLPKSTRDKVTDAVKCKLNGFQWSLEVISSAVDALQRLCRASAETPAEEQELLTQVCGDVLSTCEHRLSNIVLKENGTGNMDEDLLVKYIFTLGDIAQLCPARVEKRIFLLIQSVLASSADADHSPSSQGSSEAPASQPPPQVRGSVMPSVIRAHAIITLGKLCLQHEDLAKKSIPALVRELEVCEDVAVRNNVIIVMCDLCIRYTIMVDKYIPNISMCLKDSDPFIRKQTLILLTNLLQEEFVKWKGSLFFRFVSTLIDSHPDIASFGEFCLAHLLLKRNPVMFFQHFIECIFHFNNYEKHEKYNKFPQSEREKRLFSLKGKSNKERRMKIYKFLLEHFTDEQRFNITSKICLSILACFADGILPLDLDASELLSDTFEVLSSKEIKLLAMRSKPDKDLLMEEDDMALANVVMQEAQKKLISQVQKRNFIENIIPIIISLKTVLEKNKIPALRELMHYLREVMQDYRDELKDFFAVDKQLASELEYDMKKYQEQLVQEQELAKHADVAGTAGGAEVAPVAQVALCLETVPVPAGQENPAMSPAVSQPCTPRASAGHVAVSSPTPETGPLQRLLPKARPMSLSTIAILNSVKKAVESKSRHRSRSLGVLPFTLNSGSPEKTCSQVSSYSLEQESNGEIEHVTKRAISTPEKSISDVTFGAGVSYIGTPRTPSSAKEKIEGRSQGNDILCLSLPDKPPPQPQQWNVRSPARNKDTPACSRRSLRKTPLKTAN
# UniProt P35813: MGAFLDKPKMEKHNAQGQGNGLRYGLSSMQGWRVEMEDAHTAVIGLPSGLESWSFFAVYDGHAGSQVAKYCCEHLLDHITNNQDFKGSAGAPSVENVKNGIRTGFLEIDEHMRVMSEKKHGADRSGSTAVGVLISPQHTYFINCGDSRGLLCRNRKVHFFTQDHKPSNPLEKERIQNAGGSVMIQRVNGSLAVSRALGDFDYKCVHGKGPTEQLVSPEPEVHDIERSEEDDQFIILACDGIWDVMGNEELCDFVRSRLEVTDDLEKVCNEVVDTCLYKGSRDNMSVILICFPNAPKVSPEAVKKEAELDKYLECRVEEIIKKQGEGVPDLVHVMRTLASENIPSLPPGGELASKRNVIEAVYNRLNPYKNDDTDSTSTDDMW
# The other results are listed elsewhere or left out. Small differences around the control level are noise.
# Compound: Cc1nc(Nc2ncc(C(=O)Nc3c(C)cccc3Cl)s2)cc(N2CCN(CCO)CC2)n1 [dasatinib]
# Experiment: log2 fold change of tryptic peptide abundance, ligand vs vehicle (limited proteolysis) (log2 ratio); higher = more trypsin-susceptible (destabilized)
# Details: ligand concentration: 5 uM; sample: K562 cleared lysate
row,Target,log2 fold change
1,"CTNNA1 (peptide sequence: NTSDVISAAKK, peptide start residue: 738) (UniProt P35221)",-0.405
2,"NOS3 (peptide sequence: TYVQDILR, peptide start residue: 1086) (UniProt P29474)",0.452
3,"IARS (peptide sequence: TGTIVVEGHELHDEDIR, peptide start residue: 930) (UniProt P41252)",-0.153
4,"ATIC (peptide sequence: TLHPAVHAGILAR, peptide start residue: 67) (UniProt P31939)",-0.0732
5,"HTT (peptide sequence: KAVTHAIPALQPIVHDLFVLR, peptide start residue: 1533) (UniProt P42858)",0.53
6,"RPL13A (peptide sequence: MNTNPSRGPYHFR, peptide start residue: 62) (UniProt P40429)",-0.09
7,"NNMT (peptide sequence: FSSLPLGR, peptide start residue: 211) (UniProt P40261)",0.154
8,"MDH1 (peptide sequence: ENFSCLTR, peptide start residue: 150) (UniProt P40925)",0.227
9,"NCAPD3 (peptide sequence: LCLQHEDLAKK, peptide start residue: 930) (UniProt P42695)",-0.501
10,"PPM1A (peptide sequence: HNAQGQGNGLR, peptide start residue: 13) (UniProt P35813)",0.369
